# According to publication PMC10203710:
# These are yes or no findings as the source states them, for the method shown. Binding seen in cells or lysates may run through a third protein. Tags and fused reporters may be left off the sequences shown.
# Biological target: IFT140 (human (endogenous in HEK-293T)), Q96RY7
# Assay: co-IP; HEK-293T cells transfected with Flag-human WDR60 or Flag-human WDR34; lysate in 1% Triton X-100 buffer (20 mM Tris pH 7.5, 150 mM NaCl); IP with anti-IFT88 or anti-IFT140 antibody at 4°C overnight, Protein A + G agarose beads, washed in cold PBS; WDR60 or WDR34 detected by western blot
# Settings: remark: other sources report otherwise
binder,measurement,value
"Flag-human WDR60 (WD repeat domain 60), Q8WVS4 1-1066 (protein) MEPGKRRTKDDTWKADDLRKHLWAIQSGGSKEERKHREKKLRKESEMDLPEHKEPRCRDPDQDARSRDRVAEVHTAKESPRGERDRDRQRERRRDAKDREKEKLKEKHREAEKSHSRGKDREKEKDRRARKEELRQTVAHHNLLGQETRDRQLLERAERKGRSVSKVRSEEKDEDSERGDEDRERRYRERKLQYGDSKDNPLKYWLYKEEGERRHRKPREPDRDNKHREKSSTREKREKYSKEKSNSFSDKGEERHKEKRHKEGFHFDDERHQSNVDRKEKSAKDEPRKRESQNGEHRNRGASSKRDGTSSQHAENLVRNHGKDKDSRRKHGHEEGSSVWWKLDQRPGGEETVEIEKEETDLENARADAYTASCEDDFEDYEDDFEVCDGDDDESSNEPESREKLEELPLAQKKEIQEIQRAINAENERIGELSLKLFQKRGRTEFEKEPRTDTNSSPSRASVCGIFVDFASASHRQKSRTQALKQKMRSTKLLRLIDLDFSFTFSLLDLPPVNEYDMYIRNFGKKNTKQAYVQCNEDNVERDIQTEEIETREVWTQHPGESTVVSGGSEQRDTSDAVVMPKIDTPRLCSFLRAACQVMAVLLEEDRLAAEPSWNLRAQDRALYFSDSSSQLNTSLPFLQNRKVSSLHTSRVQRQMVVSVHDLPEKSFVPLLDSKYVLCVWDIWQPSGPQKVLICESQVTCCCLSPLKAFLLFAGTAHGSVVVWDLREDSRLHYSVTLSDGFWTFRTATFSTDGILTSVNHRSPLQAVEPISTSVHKKQSFVLSPFSTQEEMSGLSFHIASLDESGVLNVWVVVELPKADIAGSISDLGLMPGGRVKLVHSALIQLGDSLSHKGNEFWGTTQTLNVKFLPSDPNHFIIGTDMGLISHGTRQDLRVAPKLFKPQQHGIRPVKVNVIDFSPFGEPIFLAGCSDGSIRLHQLSSAFPLLQWDSSTDSHAVTGLQWSPTRPAVFLVQDDTSNIYIWDLLQSDLGPVAKQQVSPNRLVAMAAVGEPEKAGGSFLALVLARASGSIDIQHLKRRWAAPEVDECNRLRLLLQEALWPEGKLHK",binding,no binding
